{"source": "PubChem BioAssay AID504793 (Drosophila RNAi Screening Center, 2011)", "screen": "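Whole-genome screen for parts of the DNA damage checkpoint at G2/M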 (primary screen)", "cells": "Drosophila S2R+ cells", "knock-down reagent": "long dsRNA against Drosophila genes, about 0.25 µg dsRNA per well", "timing": "4 days of dsRNA, then 4 hours of drug before read-out", "conditions": "doxorubicin 0.5 µM for 4 hours to cause double-strand breaks, in cells also given a low, harmless dose of dsRNA against nbs to sensitise the assay", "measurement": "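Mitotic index as the number of phospho-histone H3-positive cells in each well following doxorubicin, given as raw counts without normalisation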", "direction": "mitotic cells: higher = more cells in mitosis, weaker G2 arrest", "call rule": "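Genes are called active only when high mitotic counts were reproduced with independent dsRNAs and mitosis was checked for delay without damage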", "calls": "active = confirmed in follow-up tests; inactive = not confirmed", "note": "The deposit covers about 23,000 reagents; this is a random part of those that have a named target and a result. Of all reagents, 62 (0.27%) were called active. 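Calls come from follow-up tests whose scores are not deposited, so confirmed genes may have low counts here; counts are not normalised per plate.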 Raw values vary from plate to plate and are shown uncorrected."}
{"predicted target":"Sod3","PubChem SID":"SID104187116","mitotic cells, replicate 1":4,"Outcome":"inactive"}
{"predicted target":"Sod3","PubChem SID":"SID104204766","mitotic cells, replicate 1":2,"Outcome":"inactive"}
{"predicted target":"CG8128","PubChem SID":"SID104199876","mitotic cells, replicate 1":5,"Outcome":"inactive"}
{"predicted target":"Cyp9b1","PubChem SID":"SID104187181","mitotic cells, replicate 1":7,"Outcome":"inactive"}
{"predicted target":"Cyp9b1","PubChem SID":"SID104203374","mitotic cells, replicate 1":8,"Outcome":"inactive"}
{"predicted target":"Syt12","PubChem SID":"SID104199151","mitotic cells, replicate 1":6,"Outcome":"inactive"}
{"predicted target":"CG34281","PubChem SID":"SID104194599","mitotic cells, replicate 1":8,"Outcome":"inactive"}
{"predicted target":"CG34281","PubChem SID":"SID104208655","mitotic cells, replicate 1":1,"Outcome":"inactive"}
{"predicted target":"pain","PubChem SID":"SID104184065","mitotic cells, replicate 1":7,"Outcome":"inactive"}
{"predicted target":"pain","PubChem SID":"SID104206895","mitotic cells, replicate 1":8,"Outcome":"inactive"}
{"predicted target":"CG10973","PubChem SID":"SID104189605","mitotic cells, replicate 1":10,"Outcome":"inactive"}
{"predicted target":"ATPsynCF6L","PubChem SID":"SID104188024","mitotic cells, replicate 1":5,"Outcome":"inactive"}
{"predicted target":"ATPsynCF6L","PubChem SID":"SID104205885","mitotic cells, replicate 1":5,"Outcome":"inactive"}
{"predicted target":"Blos3","PubChem SID":"SID104189365","mitotic cells, replicate 1":9,"Outcome":"inactive"}
{"predicted target":"spoon","PubChem SID":"SID104198091","mitotic cells, replicate 1":4,"Outcome":"inactive"}
{"predicted target":"spoon","PubChem SID":"SID104203247","mitotic cells, replicate 1":6,"Outcome":"inactive"}
{"predicted target":"CG11726","PubChem SID":"SID104189650","mitotic cells, replicate 1":3,"Outcome":"inactive"}
{"predicted target":"CG8543","PubChem SID":"SID104190782","mitotic cells, replicate 1":5,"Outcome":"inactive"}
{"predicted target":"CG8543","PubChem SID":"SID104202168","mitotic cells, replicate 1":9,"Outcome":"inactive"}
{"predicted target":"CG8543","PubChem SID":"SID104203945","mitotic cells, replicate 1":8,"Outcome":"inactive"}
{"predicted target":"LysRS","PubChem SID":"SID104197616","mitotic cells, replicate 1":13,"Outcome":"inactive"}
{"predicted target":"LysRS","PubChem SID":"SID104204162","mitotic cells, replicate 1":5,"Outcome":"inactive"}
{"predicted target":"CG8635","PubChem SID":"SID104187018","mitotic cells, replicate 1":2,"Outcome":"inactive"}
{"predicted target":"CG8635","PubChem SID":"SID104207687","mitotic cells, replicate 1":3,"Outcome":"inactive"}
{"predicted target":"RpL27A","PubChem SID":"SID104180573","mitotic cells, replicate 1":5,"Outcome":"inactive"}
{"predicted target":"RpL27A","PubChem SID":"SID104207010","mitotic cells, replicate 1":3,"Outcome":"inactive"}
{"predicted target":"CG13609","PubChem SID":"SID104194404","mitotic cells, replicate 1":11,"Outcome":"inactive"}
{"predicted target":"CG13609","PubChem SID":"SID104202202","mitotic cells, replicate 1":7,"Outcome":"inactive"}
{"predicted target":"CG13557","PubChem SID":"SID104183987","mitotic cells, replicate 1":1,"Outcome":"inactive"}
{"predicted target":"Mtmr6","PubChem SID":"SID104183838","mitotic cells, replicate 1":3,"Outcome":"inactive"}
{"predicted target":"Mtmr6","PubChem SID":"SID104205113","mitotic cells, replicate 1":7,"Outcome":"inactive"}
{"predicted target":"shams","PubChem SID":"SID104196382","mitotic cells, replicate 1":6,"Outcome":"inactive"}
{"predicted target":"Ucp4C","PubChem SID":"SID104182924","mitotic cells, replicate 1":8,"Outcome":"inactive"}
{"predicted target":"Ucp4C","PubChem SID":"SID104206380","mitotic cells, replicate 1":2,"Outcome":"inactive"}
{"predicted target":"sax","PubChem SID":"SID104187467","mitotic cells, replicate 1":6,"Outcome":"inactive"}
{"predicted target":"sax","PubChem SID":"SID104205388","mitotic cells, replicate 1":8,"Outcome":"inactive"}
{"predicted target":"CG15213","PubChem SID":"SID104190005","mitotic cells, replicate 1":6,"Outcome":"inactive"}
{"predicted target":"TyrRS-m","PubChem SID":"SID104184078","mitotic cells, replicate 1":6,"Outcome":"inactive"}
{"predicted target":"CG9168","PubChem SID":"SID104188425","mitotic cells, replicate 1":6,"Outcome":"inactive"}
{"predicted target":"Him","PubChem SID":"SID104199430","mitotic cells, replicate 1":11,"Outcome":"inactive"}
{"predicted target":"CG11029","PubChem SID":"SID104181911","mitotic cells, replicate 1":4,"Outcome":"inactive"}
{"predicted target":"mRpS18A","PubChem SID":"SID104194161","mitotic cells, replicate 1":9,"Outcome":"inactive"}
{"predicted target":"tHMG2","PubChem SID":"SID104195974","mitotic cells, replicate 1":6,"Outcome":"inactive"}
